Reference: the supplement of paper PMC10849652
The list shows a part of the results.

Sequences of proteins named here, by UniProt entry; tags and fusion partners are left off. A change or cut given only in a name is not applied to a line headed by its entry.
UniProt P61970, whole entry, looked up: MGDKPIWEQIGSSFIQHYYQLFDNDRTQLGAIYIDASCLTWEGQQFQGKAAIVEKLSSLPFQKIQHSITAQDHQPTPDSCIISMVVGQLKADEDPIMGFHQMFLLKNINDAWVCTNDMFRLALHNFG
UniProt Q6PK18: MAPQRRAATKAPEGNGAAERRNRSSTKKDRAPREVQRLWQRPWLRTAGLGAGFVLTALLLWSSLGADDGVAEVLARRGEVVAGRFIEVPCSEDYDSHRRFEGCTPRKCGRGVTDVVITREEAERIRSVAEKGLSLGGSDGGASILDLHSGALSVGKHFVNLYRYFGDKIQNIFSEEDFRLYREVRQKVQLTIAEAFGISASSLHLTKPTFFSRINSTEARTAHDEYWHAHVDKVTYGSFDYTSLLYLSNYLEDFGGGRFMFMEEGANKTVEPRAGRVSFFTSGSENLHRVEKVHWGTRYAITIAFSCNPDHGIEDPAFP
UniProt Q9BVL2: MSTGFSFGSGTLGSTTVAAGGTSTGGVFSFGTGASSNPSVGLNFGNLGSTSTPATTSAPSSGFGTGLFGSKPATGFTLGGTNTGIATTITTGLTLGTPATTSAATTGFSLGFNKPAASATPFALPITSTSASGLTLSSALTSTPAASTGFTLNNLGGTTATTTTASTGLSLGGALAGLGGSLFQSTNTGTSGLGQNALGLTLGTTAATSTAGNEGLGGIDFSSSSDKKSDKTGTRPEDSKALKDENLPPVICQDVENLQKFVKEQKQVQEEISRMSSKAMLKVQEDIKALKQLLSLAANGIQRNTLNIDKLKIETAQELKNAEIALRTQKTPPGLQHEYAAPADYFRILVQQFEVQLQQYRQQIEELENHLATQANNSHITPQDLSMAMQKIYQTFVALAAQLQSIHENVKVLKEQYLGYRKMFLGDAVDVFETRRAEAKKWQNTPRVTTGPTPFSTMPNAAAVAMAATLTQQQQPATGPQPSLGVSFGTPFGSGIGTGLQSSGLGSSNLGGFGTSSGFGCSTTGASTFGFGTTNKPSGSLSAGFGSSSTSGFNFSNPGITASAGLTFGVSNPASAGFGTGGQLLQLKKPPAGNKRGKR
UniProt Q96E52: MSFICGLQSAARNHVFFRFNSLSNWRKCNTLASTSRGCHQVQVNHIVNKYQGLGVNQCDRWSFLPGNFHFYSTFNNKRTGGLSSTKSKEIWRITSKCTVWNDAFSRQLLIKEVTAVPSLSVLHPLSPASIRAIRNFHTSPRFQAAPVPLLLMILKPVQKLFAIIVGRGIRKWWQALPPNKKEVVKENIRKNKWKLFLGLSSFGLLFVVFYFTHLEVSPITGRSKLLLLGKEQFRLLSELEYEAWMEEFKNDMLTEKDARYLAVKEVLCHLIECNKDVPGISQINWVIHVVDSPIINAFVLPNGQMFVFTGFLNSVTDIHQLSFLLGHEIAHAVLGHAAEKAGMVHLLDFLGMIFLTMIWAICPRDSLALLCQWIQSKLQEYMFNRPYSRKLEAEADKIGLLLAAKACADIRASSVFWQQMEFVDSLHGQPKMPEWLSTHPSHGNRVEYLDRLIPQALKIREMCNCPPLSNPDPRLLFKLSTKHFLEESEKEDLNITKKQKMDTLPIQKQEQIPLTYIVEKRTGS
UniProt P49790, whole entry, looked up: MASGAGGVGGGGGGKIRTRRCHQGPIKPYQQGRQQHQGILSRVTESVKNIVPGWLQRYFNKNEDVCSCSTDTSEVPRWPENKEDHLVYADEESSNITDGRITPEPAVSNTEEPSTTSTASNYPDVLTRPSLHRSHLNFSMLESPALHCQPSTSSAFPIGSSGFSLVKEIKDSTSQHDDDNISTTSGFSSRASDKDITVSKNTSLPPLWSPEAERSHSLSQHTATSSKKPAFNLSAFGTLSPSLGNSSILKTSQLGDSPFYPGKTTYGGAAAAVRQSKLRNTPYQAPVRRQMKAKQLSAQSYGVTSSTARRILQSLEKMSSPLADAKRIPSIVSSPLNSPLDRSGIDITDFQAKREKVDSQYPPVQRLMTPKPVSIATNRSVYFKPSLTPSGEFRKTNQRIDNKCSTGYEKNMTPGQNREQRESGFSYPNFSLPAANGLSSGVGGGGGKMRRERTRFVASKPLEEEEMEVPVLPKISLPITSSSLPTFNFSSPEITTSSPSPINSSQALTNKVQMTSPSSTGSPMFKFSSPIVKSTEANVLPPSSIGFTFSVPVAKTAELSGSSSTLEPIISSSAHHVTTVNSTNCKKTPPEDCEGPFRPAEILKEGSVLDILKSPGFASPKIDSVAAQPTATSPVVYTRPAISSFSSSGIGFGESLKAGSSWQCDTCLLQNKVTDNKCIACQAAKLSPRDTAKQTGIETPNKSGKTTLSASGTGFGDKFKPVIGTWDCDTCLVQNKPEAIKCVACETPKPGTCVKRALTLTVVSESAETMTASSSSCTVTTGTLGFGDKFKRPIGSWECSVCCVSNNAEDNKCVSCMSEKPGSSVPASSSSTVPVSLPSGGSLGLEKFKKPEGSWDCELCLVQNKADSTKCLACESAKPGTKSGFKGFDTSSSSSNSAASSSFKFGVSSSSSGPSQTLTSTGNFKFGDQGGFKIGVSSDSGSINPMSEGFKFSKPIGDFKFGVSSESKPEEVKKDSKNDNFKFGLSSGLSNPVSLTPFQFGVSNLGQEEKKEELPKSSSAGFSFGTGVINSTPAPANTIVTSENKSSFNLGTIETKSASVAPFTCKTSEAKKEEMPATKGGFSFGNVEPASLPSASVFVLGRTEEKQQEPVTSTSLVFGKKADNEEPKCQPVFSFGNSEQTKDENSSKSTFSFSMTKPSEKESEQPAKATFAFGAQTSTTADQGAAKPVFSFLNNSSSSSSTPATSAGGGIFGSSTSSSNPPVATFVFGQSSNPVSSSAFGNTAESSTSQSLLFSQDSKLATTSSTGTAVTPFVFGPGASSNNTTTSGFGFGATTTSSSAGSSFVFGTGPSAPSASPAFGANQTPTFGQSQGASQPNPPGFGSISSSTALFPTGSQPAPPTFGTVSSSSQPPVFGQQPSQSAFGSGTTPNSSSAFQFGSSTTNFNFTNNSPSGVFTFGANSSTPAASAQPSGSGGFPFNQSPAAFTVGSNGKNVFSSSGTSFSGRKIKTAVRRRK
UniProt Q96HP4: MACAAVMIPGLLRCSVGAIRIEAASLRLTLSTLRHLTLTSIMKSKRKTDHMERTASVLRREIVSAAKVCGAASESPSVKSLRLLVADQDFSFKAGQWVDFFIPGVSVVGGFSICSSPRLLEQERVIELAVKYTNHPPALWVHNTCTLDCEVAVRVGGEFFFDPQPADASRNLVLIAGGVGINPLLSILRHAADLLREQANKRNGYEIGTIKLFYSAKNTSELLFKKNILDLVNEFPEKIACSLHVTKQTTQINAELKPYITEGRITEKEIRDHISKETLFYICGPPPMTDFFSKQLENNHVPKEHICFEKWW
UniProt Q9H8K7: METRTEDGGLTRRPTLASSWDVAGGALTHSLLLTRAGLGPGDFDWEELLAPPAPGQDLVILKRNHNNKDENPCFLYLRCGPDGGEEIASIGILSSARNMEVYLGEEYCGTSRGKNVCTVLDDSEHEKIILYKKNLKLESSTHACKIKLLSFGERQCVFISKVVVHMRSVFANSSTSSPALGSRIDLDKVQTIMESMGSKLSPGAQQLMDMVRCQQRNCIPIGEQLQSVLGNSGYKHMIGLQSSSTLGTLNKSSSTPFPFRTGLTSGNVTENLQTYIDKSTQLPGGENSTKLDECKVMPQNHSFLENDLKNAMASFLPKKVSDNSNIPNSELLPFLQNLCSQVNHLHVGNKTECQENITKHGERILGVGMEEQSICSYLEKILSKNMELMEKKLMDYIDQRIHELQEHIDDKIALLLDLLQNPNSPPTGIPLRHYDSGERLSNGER
UniProt Q9BXS6: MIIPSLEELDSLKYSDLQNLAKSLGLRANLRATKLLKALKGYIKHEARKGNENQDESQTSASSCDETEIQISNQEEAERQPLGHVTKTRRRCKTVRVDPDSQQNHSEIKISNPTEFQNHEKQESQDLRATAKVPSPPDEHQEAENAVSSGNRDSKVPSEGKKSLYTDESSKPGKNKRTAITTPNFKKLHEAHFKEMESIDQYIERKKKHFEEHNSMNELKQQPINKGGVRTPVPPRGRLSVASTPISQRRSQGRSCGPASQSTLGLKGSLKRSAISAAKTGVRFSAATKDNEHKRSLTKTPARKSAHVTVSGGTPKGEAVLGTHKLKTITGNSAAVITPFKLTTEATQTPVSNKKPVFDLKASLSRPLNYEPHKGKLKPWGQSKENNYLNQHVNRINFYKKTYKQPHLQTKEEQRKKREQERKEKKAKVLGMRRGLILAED
UniProt Q7Z3B4: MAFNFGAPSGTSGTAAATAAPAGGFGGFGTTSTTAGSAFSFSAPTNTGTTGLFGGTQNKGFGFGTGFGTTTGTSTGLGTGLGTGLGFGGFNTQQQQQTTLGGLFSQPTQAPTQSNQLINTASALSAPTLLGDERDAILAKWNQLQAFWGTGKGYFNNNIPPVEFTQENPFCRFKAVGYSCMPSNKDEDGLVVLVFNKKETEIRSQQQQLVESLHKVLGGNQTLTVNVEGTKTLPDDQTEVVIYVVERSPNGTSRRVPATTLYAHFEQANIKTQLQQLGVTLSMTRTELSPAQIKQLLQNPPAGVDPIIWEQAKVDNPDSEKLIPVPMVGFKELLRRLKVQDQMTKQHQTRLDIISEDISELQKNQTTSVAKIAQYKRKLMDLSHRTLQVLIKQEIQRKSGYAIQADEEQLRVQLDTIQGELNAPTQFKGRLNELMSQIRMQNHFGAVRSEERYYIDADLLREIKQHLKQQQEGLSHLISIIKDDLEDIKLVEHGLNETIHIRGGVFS
UniProt Q8WUM0: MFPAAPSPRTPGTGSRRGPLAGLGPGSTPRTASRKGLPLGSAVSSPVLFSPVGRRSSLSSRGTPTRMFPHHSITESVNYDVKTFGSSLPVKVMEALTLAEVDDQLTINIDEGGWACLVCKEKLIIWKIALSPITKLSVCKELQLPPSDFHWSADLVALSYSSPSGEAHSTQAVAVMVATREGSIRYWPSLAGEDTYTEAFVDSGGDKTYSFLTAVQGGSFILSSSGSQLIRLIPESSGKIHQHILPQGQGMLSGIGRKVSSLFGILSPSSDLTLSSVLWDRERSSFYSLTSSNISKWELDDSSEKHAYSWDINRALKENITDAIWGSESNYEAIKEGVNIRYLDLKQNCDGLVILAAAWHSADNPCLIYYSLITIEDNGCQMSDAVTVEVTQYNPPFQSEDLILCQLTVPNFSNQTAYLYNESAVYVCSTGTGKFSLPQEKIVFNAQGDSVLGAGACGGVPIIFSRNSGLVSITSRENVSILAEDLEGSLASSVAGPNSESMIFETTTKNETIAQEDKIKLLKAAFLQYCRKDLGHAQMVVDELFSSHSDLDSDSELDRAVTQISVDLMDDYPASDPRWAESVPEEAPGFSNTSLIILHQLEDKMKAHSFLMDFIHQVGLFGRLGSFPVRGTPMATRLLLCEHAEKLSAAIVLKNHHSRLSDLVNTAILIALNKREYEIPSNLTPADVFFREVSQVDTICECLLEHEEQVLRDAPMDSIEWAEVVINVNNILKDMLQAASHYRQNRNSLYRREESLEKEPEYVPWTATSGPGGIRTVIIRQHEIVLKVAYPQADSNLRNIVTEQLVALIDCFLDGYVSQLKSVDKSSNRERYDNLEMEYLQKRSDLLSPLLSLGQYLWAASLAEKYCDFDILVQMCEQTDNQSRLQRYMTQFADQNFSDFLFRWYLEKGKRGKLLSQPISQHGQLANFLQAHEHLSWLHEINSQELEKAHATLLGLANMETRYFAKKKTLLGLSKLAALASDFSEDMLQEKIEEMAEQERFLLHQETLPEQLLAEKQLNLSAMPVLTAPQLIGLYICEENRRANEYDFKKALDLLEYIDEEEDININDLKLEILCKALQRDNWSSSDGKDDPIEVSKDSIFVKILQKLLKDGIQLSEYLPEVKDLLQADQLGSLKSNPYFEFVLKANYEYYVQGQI
UniProt Q13438: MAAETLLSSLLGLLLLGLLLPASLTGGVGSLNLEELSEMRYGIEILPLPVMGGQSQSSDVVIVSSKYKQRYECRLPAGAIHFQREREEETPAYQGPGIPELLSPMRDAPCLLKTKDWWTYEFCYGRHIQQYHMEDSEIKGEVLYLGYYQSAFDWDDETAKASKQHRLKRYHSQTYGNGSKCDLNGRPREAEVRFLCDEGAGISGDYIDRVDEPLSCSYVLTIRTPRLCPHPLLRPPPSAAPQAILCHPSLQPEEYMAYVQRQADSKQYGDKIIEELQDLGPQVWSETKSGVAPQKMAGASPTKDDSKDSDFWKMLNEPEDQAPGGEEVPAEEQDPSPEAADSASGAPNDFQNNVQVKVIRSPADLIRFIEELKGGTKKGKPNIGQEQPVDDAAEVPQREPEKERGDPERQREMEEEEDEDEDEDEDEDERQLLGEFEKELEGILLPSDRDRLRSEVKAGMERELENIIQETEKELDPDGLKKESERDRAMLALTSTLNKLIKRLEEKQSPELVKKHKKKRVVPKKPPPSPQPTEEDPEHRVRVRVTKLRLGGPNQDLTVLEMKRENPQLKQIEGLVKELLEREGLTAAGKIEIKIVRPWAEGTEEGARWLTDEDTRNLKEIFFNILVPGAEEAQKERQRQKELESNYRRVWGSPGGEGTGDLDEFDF

How the values were obtained:
Assay in all cases: log2 fold change, soluble protein after heating vs DMSO (PISA); higher = thermal stabilisation; K562 cells, 10 uM, 30 min; active = over 0.2 and 3.5 SD of the protein, either way, in both replicates (recomputed)
[1] = compound: CC[C@@H]1C(=O)N(C)c2cnc(Nc3ccc(C(=O)NC4CCN(C)CC4)cc3OC)nc2N1C1CCCC1
Outline: (§1)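 K562 cells at 2×10^6 cells/mL were exposed to 10 μM compound for 30 min, then aliquots were heated for 3 min across 48°C-58°C, pooled, and extracted in PBS containing 0.5% NP-40 at 4°C. The supernatant after 21,000xg for 90 min was taken as soluble protein and measured by TMTpro 16plex LC-MS/MS with channel sums equalised. Thermal stability is reported relative to control samples, with values from duplicates. Fold changes are given on a log2 scale.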

volasertib = compound: CC[C@@H]1C(=O)N(C)c2cnc(Nc3ccc(C(=O)N[C@H]4CC[C@H](N5CCN(CC6CC6)CC5)CC4)cc3OC)nc2N1C(C)C [volasertib]
Outline: as §1

[2] = compound: CC[C@H](C)N1C=C(C2=C(C=C(C=C21)C3=CN=C(C=C3)N4CCNCC4)C(=O)NCC5=C(C=C(NC5=O)C)C)C
Outline: as §1

epoxomicin = compound: CC[C@H](C)[C@@H](C(=O)N[C@@H]([C@@H](C)O)C(=O)N[C@@H](CC(C)C)C(=O)[C@]1(CO1)C)NC(=O)[C@H]([C@@H](C)CC)N(C)C(=O)C [epoxomicin]
Outline: as §1

[3] = compound: CCn1c(C(=O)N(C2CC2)C2CC2)cc2c3c(ncn3C)c(Nc3cc(C)n(C)n3)nc21
Outline: as §1

[4] = compound: CCn1cc(-c2ccnc3[nH]c(-c4cccc(CN(C)C)c4)cc23)c(-c2ccc(NC(=O)N(C)C)cc2)n1
Outline: as §1

[5] = compound: CN(C)CC(=O)Nc1ccc2[nH]c(=O)c3ccccc3c2c1
Outline: as §1

rosiglitazone = compound: CN(CCOC1=CC=C(C=C1)C[C@H]2C(=O)NC(=O)S2)C3=CC=CC=N3 (racemic) [rosiglitazone]
Outline: as §1

[6] = compound: CN1C2=C(C3=C1C(=O)N(N=C3)CC4=CC(=CC=C4)N)SC(=C2)S(=O)C
Outline: as §1

[7] = compound: CN1CCC(CNc2ccc3ncc(-c4cccc(OC(F)(F)F)c4)n3n2)CC1
Outline: as §1

saracatinib = compound: CN1CCN(CCOc2cc(OC3CCOCC3)c3c(Nc4c(Cl)ccc5c4OCO5)ncnc3c2)CC1 [saracatinib]
Outline: as §1

sotrastaurin = compound: CN1CCN(c2nc(C3=C(c4c[nH]c5ccccc45)C(=O)NC3=O)c3ccccc3n2)CC1 [sotrastaurin]
Outline: as §1

alvocidib = compound: CN1CC[C@H](c2c(O)cc(O)c3c(=O)cc(-c4ccccc4Cl)oc23)[C@H](O)C1 [alvocidib]
Outline: as §1

Tubastatin A = compound: CN1CCc2c(c3ccccc3n2Cc2ccc(C(=O)NO)cc2)C1 [Tubastatin A]
Outline: as §1

[8] = compound: CNC(=O)C1=CC=CC=C1NC2=NC(=NC=C2Cl)NC3=C(C=C(C=C3)N4CCOCC4)OC
Outline: as §1

defactinib = compound: CNC(=O)c1ccc(Nc2ncc(C(F)(F)F)c(NCc3nccnc3N(C)S(C)(=O)=O)n2)cc1 [defactinib]
Outline: as §1

rucaparib = compound: CNCc1ccc(-c2[nH]c3cc(F)cc4c3c2CCNC4=O)cc1 [rucaparib]
Outline: as §1

[9] = compound: CNc1nc(-c2ccc3c(N)n[nH]c3c2)cc(N2C[C@@H](C(=O)NC3CCCCC3)CC[C@H]2C)n1
Outline: as §1

encorafenib = compound: COC(=O)N[C@@H](C)CNc1nccc(-c2cn(C(C)C)nc2-c2cc(Cl)cc(NS(C)(=O)=O)c2F)n1 [encorafenib]
Outline: as §1

[10] = compound: COC(=O)[C@H](CCSC)NC(=O)C1=C(C=C(C=C1)NC[C@H](CS)N)C2=CC=CC=C2
Outline: as §1

Measured: log2 fold change

NUTF2 (UniProt P61970)
inactive: [1] 0.006 | volasertib -0.041 | [2] 0.016 | epoxomicin 0.028 | [3] -0.067 | [4] -0.117 | [5] 0.196 | rosiglitazone -0.006 | [6] -0.035 | [7] 0.052 | saracatinib 0.102 | sotrastaurin -0.013 | alvocidib -0.111 | Tubastatin A 0.015 | [8] 0.024 | defactinib -0.032 | rucaparib -0.052 | [9] 0.106 | encorafenib 0.004 | [10] 0.095

OGFOD3 isoform 2 (UniProt Q6PK18)
inactive: [1] 0.028 | volasertib -0.001 | [2] -0.081 | epoxomicin 0.014 | [3] -0.025 | [4] -0.165 | [5] -0.052 | rosiglitazone 0.015 | [6] 0.051 | [7] 0.098 | saracatinib -0.049 | sotrastaurin 0.016 | alvocidib -0.021 | Tubastatin A -0.034 | [8] 0.101 | defactinib -0.015 | rucaparib 0.146 | [9] -0.028 | encorafenib 0.074 | [10] -0.008

NT5C (UniProt Q8TCD5)
inactive: [1] 0.023 | volasertib 0.07 | [2] -0.021 | epoxomicin 0.003 | [3] -0.009 | [4] -0.051 | [5] -0.04 | rosiglitazone 0.01 | [6] -0.034 | [7] -0.025 | saracatinib 0.029 | sotrastaurin 0.077 | alvocidib 0.01 | Tubastatin A -0.004 | [8] -0.035 | defactinib 0.02 | rucaparib -0.022 | [9] -0.027 | encorafenib -0.044 | [10] 0.014

NUBPL (UniProt Q8TB37)
inactive: [1] 0.036 | volasertib 0.01 | [2] 0.002 | epoxomicin -0.058 | [3] -0.052 | [4] 0.02 | [5] -0.022 | rosiglitazone -0.006 | [6] -0.009 | [7] 0.082 | saracatinib 0.017 | sotrastaurin -0.007 | alvocidib 0.015 | Tubastatin A -0.042 | [8] 0.013 | defactinib 0.024 | rucaparib 0.021 | [9] 0.026 | encorafenib 0 | [10] 0.048

OTC (UniProt P00480)
inactive: [1] 0.258 | volasertib 0.183 | [2] -0.267 | epoxomicin -0.146 | [3] -0.033 | [4] 0.104 | [5] -0.087 | rosiglitazone 0.109 | [6] 0.059 | [7] -0.147 | saracatinib -0.139 | sotrastaurin 0.097 | alvocidib 0.143 | Tubastatin A 0.031 | [8] 0.02 | defactinib 0 | rucaparib -0.251 | [9] -0.161 | encorafenib 0.058 | [10] 0.082

NUP58 (UniProt Q9BVL2)
inactive: [1] 0.046 | volasertib -0.031 | [2] -0.012 | epoxomicin 0.028 | [3] -0.036 | [4] -0.036 | [5] -0.011 | rosiglitazone 0.006 | [6] 0.028 | [7] 0 | saracatinib -0.064 | sotrastaurin 0.005 | alvocidib -0.017 | Tubastatin A 0.01 | [8] 0.021 | defactinib -0.001 | rucaparib -0.051 | [9] -0.015 | encorafenib 0.003 | [10] 0.02

OMA1 (UniProt Q96E52)
inactive: [1] 0.034 | volasertib -0.044 | [2] -0.051 | epoxomicin 0.001 | [3] -0.003 | [4] -0.038 | [5] -0.025 | rosiglitazone 0.019 | [6] -0.083 | [7] 0.042 | saracatinib 0.04 | sotrastaurin 0.048 | alvocidib 0.015 | Tubastatin A 0.081 | [8] -0.075 | defactinib -0.017 | rucaparib -0.044 | [9] -0.005 | encorafenib 0.032 | [10] 0.033

NUP153 (UniProt P49790)
inactive: [1] -0.03 | volasertib -0.086 | [2] -0.019 | epoxomicin -0.007 | [3] 0.043 | [4] 0.002 | [5] -0.028 | rosiglitazone -0.021 | [6] 0.042 | [7] 0.024 | saracatinib 0.059 | sotrastaurin -0.04 | alvocidib 0.025 | Tubastatin A -0.005 | [8] 0.012 | defactinib 0.002 | rucaparib 0.016 | [9] -0.07 | encorafenib 0.026 | [10] 0.052

OXNAD1 (UniProt Q96HP4)
inactive: [1] 0.013 | volasertib -0.009 | [2] -0.005 | epoxomicin 0.055 | [3] -0.01 | [4] 0.019 | [5] -0.037 | rosiglitazone -0.018 | [6] -0.046 | [7] 0.053 | saracatinib 0.025 | sotrastaurin 0.02 | alvocidib -0.024 | Tubastatin A -0.014 | [8] -0.015 | defactinib 0.025 | rucaparib -0.036 | [9] 0 | encorafenib -0.016 | [10] -0.007

PAAT (UniProt Q9H8K7)
inactive: [1] 0.348 | volasertib -0.033 | [2] -0.199 | epoxomicin 0 | [3] 0.04 | [4] -0.027 | [5] -0.052 | rosiglitazone 0.073 | [6] -0.054 | [7] 0.003 | saracatinib 0.088 | sotrastaurin -0.024 | alvocidib -0.017 | Tubastatin A 0.025 | [8] -0.031 | defactinib -0.003 | rucaparib -0.188 | [9] -0.092 | encorafenib 0.047 | [10] 0.017

NUSAP1 (UniProt Q9BXS6)
inactive: [1] 0.213 | volasertib 0.353 | [2] -0.207 | epoxomicin -0.124 | [3] 0.035 | [4] 0.111 | [5] -0.047 | rosiglitazone 0.019 | [6] 0.161 | [7] 0.202 | saracatinib -0.068 | sotrastaurin -0.011 | alvocidib 0.189 | Tubastatin A 0.126 | [8] -0.006 | defactinib 0.03 | rucaparib -0.04 | [9] -0.022 | encorafenib 0.121 | [10] -0.01

NUP54 (UniProt Q7Z3B4)
inactive: [1] 0.003 | volasertib -0.027 | [2] 0.034 | epoxomicin 0.026 | [3] -0.105 | [4] -0.104 | [5] 0.089 | rosiglitazone 0.061 | [6] 0.011 | [7] -0.122 | saracatinib -0.126 | sotrastaurin -0.042 | alvocidib -0.102 | Tubastatin A 0.073 | [8] -0.063 | defactinib -0.058 | rucaparib 0.044 | [9] 0.073 | encorafenib 0.074 | [10] -0.02

P4HB (UniProt P07237)
inactive: [1] 0.02 | volasertib 0.077 | [2] -0.012 | epoxomicin -0.019 | [3] 0.054 | [4] 0.014 | [5] -0.048 | rosiglitazone -0.013 | [6] -0.021 | [7] 0.093 | saracatinib 0.031 | sotrastaurin 0.05 | alvocidib 0.027 | Tubastatin A -0.045 | [8] 0.067 | defactinib 0.014 | rucaparib -0.097 | [9] -0.048 | encorafenib -0.021 | [10] 0.044

NUP133 (UniProt Q8WUM0)
inactive: [1] -0.041 | volasertib -0.036 | [2] 0.017 | epoxomicin -0.089 | [3] -0.065 | [4] 0.048 | [5] 0.009 | rosiglitazone -0.064 | [6] 0.154 | [7] -0.046 | saracatinib -0.03 | sotrastaurin -0.022 | alvocidib -0.039 | Tubastatin A 0.197 | [8] -0.001 | defactinib -0.002 | rucaparib 0.119 | [9] -0.078 | encorafenib 0.026 | [10] -0.135

NUCB1 (UniProt Q02818)
inactive: [1] 0.062 | volasertib 0.074 | [2] -0.037 | epoxomicin 0.031 | [3] 0.035 | [4] 0.027 | [5] -0.039 | rosiglitazone -0.029 | [6] -0.034 | [7] 0.123 | saracatinib 0.026 | sotrastaurin 0.045 | alvocidib 0.005 | Tubastatin A -0.006 | [8] 0.019 | defactinib -0.006 | rucaparib -0.049 | [9] -0.023 | encorafenib -0.028 | [10] 0.039

OS9 (UniProt Q13438)
inactive: [1] 0.018 | volasertib -0.02 | [2] -0.011 | epoxomicin 0.043 | [3] -0.021 | [4] -0.009 | [5] -0.036 | rosiglitazone -0.005 | [6] 0.019 | [7] 0.094 | saracatinib -0.077 | sotrastaurin -0.029 | alvocidib 0.024 | Tubastatin A 0.069 | [8] 0.009 | defactinib 0.035 | rucaparib 0.027 | [9] -0.022 | encorafenib 0.013 | [10] -0.011
